In the supplement of paper PMC3334620:
In all, about 33,000 sequences were measured (“E-score (-0.5 to 0.5)”: median about -0.015, highest 2% from about 0.3 on). The list shows a part of the results.

biological target: T1, Abf1 (UniProt P14164); assay: PBM E-score (8-mer binding enrichment) (E-score (-0.5 to 0.5)); higher = stronger / more preferred TF binding; conditions: protein concentration: 200 nM; construct: GST-full length
T1 sequence: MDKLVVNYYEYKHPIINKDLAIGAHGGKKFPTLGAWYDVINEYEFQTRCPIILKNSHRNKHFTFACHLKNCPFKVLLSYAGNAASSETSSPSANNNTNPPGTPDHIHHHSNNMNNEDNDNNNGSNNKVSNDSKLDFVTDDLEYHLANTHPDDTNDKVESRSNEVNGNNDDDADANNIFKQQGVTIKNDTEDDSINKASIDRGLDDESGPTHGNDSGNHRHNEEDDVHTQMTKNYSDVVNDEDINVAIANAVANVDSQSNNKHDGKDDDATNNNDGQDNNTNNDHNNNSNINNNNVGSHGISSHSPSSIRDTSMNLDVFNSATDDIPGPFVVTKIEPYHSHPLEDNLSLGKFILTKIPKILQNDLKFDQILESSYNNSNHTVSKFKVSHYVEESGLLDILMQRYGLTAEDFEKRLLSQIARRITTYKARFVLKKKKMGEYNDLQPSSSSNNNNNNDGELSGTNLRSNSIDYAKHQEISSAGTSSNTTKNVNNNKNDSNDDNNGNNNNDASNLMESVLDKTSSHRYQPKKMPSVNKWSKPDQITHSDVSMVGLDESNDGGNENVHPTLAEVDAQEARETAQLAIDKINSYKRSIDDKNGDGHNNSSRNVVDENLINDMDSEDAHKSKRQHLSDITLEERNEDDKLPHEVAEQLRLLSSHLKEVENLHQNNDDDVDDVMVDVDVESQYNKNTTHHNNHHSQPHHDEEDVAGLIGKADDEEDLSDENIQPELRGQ
Experimental: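 Universal 'all 10-mer' protein binding microarrays (Agilent AMADID 015681) probed with GST-tagged S. cerevisiae TFs (full-length or DBD) made by in vitro transcription/translation (PURExpress), about 100-200 nM. Bound TF was detected with fluorescent anti-GST. Each ungapped 8-mer (which stands for itself and its reverse complement) is scored by the PBM enrichment score (E-score), a modified Wilcoxon-Mann-Whitney statistic from -0.5 to +0.5, computed with the Universal PBM Analysis Suite. Scale: above 0.35 generally sequence-specific binding.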

Sequence	PBM E-score
CTACGTAA	0.0361
ATGCCTGC	-0.204
AAGTTCGA	-0.141
CTTCTGCC	-0.128
GTTTGGCA	0.132
AGCGACAA	0.215
AAGGTTTG	0.0201
GCCGTCAA	0.258
CGAGCTTA	-0.0534
CCTGATCC	-0.0929
AAGCTTGT	-0.0896
AAATACCC	-0.00592
TATGGCAA	0.0534
CCTATCTC	-0.104
CTGGAGCA	-0.115
GACGGCTC	-0.00134
AGGGCTCA	-0.145
ACAGTACT	-0.126
CTCCCGTC	0.111
AATCGGGA	-0.103
CTATCGAC	0.0621
GCAAAGCA	-0.184
GCTCGGCC	-0.243
AGTCAACT	-0.296

Sequence	PBM E-score
CTAGTGCA	0.139
CTGTACGC	-0.106
GCCGAAAA	0.173
GCCAAACA	-0.0646
TGTGCCAA	0.0348
GCCGCACC	-0.0586
CCTGACAG	-0.0556
CCAAGCTC	-0.0331
CACAATAA	-0.112
CAGTATTC	0.0329
CAATCGGC	-0.152
ACAAATTC	0.0246
CTGATCAA	-0.114
CATCGGAG	-0.175
CCAGCAGA	-0.0609
CTGCAAGC	-0.0671
CCTCAATC	0.152
ACATAATA	0.278
GTGGGTGA	0.237
GAAACCGA	-0.166
ACTGATGA	0.19
GAATAGAC	-0.0579
CCAAAAGG	-0.0786
GTTGATCA	0.298

Sequence	PBM E-score
AGCGTGTA	0.119
ACAGTGTG	-0.128
AATCTAGG	0.112
CAAAAGCG	-0.0911
ACAAAACT	0.103
GGAATTCA	-0.0774
CAATGCTG	-0.193
GGAGTACA	-0.046
CTTGGCAA	-0.162
CACGGGGG	-0.147
TGACCTCA	0.112
AATTCAGA	0.0831
CGACAAAC	0.167
CAGATCTG	-0.0978
AATTAAGT	0.0643
GGCACGAA	0.103
ACTGGAGC	-0.289
CGTCGTAC	0.399
ATCTCATG	0.081
CCTTGTCG	0.0374
GGGACATA	-0.00523
AGGGCTCC	-0.336
CGAAAGCG	0.0589
AGTTGGTA	0.15

Sequence	PBM E-score
GCGACCCC	-0.171
ACTTGGCG	-0.134
AACTCAAG	-0.0847
ACCAGAGC	-0.162
AAGAATAG	0.0587
AATGGAAC	0.0939
AAGGAGCT	-0.221
CTACATGC	0.186
GTCGTATA	0.402
AATGCCAC	-0.0313
ATCTGGCA	0.0875
CCAGACGA	0.143
ACGGCAAG	0.245
ACTTGGAA	-0.132
AAACTTCG	-0.00445
AACAGACG	-0.043
GCAAAGAC	-0.0514
ACAATAGT	0.0954
AAGAATAA	-0.0188
ACATCGGC	-0.073
GCATTCAC	0.133
ATGACAAA	0.338
